Test results reported in patent US20170158755A1.
No constants are given. Whether binding was seen depends on the method and setting. Some results given as binding are weak or reduced against the parent protein; the word gives no strength.

Sequences of proteins named here, by UniProt entry; tags and fusion partners are left off. A change or cut given only in a name is not applied to a line headed by its entry. Residues count along the entry.
UniProt Q16363: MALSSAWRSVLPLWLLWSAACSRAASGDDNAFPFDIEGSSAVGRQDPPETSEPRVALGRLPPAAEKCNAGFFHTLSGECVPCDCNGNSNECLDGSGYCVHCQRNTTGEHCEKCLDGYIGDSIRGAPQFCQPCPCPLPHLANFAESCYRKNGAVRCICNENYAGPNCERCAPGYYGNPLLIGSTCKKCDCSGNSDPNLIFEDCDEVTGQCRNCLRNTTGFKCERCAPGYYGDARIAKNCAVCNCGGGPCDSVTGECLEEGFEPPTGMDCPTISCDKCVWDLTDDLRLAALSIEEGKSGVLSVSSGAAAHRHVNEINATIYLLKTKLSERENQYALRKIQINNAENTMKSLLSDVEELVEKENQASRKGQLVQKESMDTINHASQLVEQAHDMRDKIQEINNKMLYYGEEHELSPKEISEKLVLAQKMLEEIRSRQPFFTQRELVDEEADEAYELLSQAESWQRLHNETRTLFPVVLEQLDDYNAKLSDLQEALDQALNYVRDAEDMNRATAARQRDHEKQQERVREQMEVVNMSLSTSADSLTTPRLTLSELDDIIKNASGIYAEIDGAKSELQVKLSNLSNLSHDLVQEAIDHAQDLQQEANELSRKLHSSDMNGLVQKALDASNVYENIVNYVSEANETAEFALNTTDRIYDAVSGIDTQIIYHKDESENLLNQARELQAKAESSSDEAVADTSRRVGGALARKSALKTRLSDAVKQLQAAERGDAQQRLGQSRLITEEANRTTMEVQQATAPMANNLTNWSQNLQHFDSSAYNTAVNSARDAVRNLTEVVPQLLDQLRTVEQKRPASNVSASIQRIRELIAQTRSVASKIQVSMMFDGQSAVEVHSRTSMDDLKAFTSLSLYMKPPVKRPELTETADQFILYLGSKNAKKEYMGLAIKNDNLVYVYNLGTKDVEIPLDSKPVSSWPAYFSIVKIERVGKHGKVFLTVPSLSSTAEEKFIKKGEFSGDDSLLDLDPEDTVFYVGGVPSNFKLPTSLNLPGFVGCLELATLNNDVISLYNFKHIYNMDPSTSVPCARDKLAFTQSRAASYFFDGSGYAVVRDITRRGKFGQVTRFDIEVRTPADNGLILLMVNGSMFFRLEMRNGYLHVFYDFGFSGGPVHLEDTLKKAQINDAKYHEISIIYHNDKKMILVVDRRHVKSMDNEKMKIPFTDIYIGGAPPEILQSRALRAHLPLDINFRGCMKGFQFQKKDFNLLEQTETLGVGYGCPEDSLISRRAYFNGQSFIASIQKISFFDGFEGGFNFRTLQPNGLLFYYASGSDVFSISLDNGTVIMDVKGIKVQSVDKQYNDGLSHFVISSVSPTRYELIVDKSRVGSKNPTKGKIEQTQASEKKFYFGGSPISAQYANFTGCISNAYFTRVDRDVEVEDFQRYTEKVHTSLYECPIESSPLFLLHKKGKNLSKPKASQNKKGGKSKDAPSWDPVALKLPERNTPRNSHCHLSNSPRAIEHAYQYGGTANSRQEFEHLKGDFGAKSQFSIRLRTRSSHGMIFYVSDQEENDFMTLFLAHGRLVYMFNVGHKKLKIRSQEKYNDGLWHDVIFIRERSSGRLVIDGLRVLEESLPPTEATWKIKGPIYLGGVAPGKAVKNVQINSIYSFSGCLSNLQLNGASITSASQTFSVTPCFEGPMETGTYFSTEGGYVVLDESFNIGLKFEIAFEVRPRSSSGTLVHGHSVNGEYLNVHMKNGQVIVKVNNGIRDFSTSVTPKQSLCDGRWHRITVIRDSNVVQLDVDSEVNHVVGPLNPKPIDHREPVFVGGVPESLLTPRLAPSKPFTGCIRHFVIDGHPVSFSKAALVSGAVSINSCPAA
UniProt P97927, residues 826-1816: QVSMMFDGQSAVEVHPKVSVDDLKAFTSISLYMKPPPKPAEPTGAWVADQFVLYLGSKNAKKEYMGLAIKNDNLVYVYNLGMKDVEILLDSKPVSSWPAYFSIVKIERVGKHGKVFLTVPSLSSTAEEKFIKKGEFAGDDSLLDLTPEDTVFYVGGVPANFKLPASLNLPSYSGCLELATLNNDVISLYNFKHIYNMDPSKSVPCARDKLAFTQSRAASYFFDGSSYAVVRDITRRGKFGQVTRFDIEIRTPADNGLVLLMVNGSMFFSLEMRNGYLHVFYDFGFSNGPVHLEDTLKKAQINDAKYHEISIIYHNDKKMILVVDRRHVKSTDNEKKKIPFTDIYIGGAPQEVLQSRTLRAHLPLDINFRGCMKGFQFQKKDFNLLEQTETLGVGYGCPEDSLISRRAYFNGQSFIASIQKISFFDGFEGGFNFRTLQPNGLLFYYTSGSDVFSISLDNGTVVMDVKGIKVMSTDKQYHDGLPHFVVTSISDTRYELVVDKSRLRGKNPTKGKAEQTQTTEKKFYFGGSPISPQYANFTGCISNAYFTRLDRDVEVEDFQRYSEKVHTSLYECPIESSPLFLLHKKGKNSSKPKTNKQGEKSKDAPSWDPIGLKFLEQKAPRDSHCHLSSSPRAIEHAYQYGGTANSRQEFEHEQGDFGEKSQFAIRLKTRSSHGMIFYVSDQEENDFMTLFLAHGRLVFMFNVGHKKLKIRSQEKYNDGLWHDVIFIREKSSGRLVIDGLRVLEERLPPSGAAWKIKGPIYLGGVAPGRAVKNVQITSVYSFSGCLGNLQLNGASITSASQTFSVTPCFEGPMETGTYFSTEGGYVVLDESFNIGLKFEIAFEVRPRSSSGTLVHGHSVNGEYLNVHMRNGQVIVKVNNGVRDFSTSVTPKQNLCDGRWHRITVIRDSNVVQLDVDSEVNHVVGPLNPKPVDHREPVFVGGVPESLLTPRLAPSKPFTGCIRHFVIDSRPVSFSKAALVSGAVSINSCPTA
UniProt P07942: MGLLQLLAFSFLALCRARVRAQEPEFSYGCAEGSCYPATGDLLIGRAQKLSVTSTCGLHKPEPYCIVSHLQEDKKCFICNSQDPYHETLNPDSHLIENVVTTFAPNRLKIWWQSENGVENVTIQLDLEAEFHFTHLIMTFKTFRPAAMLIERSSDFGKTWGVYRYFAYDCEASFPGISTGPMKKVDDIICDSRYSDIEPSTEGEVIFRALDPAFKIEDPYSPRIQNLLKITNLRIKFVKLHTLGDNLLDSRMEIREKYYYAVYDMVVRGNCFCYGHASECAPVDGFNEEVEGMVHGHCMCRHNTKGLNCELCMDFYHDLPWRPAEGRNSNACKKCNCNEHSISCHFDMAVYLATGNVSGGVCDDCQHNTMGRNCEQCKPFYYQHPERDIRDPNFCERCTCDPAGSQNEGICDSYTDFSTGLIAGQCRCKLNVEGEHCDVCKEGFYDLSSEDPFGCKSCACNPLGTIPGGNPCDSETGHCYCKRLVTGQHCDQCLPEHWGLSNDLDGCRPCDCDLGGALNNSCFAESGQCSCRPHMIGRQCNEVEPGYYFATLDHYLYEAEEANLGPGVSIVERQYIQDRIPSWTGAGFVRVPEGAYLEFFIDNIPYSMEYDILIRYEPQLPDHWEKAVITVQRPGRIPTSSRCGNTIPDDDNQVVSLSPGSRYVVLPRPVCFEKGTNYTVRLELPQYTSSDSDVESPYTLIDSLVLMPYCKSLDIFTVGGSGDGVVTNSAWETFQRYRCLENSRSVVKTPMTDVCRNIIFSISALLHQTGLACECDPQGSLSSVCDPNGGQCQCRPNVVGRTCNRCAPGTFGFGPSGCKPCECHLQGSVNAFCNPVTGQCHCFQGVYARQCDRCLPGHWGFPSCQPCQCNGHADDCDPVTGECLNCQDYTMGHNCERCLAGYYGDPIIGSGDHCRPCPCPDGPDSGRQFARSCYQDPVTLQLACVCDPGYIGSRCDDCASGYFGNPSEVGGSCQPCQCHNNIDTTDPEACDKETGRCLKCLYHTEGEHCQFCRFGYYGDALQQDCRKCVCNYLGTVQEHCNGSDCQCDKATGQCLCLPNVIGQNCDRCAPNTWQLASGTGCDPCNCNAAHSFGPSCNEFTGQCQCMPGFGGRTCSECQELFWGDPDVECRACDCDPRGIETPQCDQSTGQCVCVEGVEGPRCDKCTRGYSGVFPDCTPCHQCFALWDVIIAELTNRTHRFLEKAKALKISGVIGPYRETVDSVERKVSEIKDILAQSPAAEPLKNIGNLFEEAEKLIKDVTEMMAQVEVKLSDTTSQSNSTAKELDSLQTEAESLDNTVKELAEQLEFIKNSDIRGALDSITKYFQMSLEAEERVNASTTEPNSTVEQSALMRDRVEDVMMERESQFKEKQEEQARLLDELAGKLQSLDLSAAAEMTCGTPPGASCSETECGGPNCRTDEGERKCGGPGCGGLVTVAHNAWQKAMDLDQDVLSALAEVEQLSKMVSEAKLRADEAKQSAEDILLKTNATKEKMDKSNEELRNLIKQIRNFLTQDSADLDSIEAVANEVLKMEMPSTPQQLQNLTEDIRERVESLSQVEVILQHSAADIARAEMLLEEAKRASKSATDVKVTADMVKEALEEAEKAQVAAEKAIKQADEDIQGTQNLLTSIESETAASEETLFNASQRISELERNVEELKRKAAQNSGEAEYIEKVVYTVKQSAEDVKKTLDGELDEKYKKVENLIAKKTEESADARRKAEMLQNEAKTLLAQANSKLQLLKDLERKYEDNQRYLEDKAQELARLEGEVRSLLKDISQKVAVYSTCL
UniProt P11047: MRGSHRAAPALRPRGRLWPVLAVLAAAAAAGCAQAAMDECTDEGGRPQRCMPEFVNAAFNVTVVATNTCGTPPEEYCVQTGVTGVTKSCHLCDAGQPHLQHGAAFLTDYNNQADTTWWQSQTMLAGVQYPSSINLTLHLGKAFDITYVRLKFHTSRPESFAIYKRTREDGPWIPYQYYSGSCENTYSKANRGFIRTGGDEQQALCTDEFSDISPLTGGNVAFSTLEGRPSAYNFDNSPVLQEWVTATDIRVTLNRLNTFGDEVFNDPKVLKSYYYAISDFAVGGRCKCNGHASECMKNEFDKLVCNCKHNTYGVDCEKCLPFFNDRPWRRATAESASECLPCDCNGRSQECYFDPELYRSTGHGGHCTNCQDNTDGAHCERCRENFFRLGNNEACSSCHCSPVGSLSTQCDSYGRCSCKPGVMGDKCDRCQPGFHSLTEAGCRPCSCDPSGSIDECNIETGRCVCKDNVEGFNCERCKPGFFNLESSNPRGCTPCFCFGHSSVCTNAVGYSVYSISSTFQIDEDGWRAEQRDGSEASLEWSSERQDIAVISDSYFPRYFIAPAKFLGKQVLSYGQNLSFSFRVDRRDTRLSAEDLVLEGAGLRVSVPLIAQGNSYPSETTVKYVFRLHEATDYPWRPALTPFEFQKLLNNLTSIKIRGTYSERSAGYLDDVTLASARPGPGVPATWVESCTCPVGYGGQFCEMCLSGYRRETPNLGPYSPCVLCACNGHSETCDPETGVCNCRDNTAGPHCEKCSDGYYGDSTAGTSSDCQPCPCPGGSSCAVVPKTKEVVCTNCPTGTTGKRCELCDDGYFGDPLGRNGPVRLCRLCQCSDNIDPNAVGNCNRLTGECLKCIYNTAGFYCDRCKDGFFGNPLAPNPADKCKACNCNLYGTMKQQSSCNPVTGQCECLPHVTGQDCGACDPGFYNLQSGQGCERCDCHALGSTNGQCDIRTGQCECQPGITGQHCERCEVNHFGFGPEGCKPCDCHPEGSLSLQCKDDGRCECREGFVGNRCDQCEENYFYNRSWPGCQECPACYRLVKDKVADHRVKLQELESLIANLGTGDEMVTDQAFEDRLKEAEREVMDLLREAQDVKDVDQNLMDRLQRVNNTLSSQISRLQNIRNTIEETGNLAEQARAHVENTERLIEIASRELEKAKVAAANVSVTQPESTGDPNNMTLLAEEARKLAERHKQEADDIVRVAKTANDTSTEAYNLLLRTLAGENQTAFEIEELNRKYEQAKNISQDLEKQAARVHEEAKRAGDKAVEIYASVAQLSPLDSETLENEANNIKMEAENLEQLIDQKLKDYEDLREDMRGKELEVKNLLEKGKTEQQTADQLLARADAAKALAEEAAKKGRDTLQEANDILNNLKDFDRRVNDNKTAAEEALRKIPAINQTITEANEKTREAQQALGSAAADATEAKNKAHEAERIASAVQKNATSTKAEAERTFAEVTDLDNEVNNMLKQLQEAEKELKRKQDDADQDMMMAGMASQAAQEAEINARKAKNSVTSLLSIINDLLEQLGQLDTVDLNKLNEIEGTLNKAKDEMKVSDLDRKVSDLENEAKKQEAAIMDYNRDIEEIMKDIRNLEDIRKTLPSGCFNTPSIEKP

Legend:
[1] = target: human LAMA4 G domain (LG1-5) displayed on 293 cells (human) (UniProt Q16363); assay: flow cytometry, LAMA4 pDisplay binding assay on LAMA4-displaying 293 cells; % binding
[2] = target: human LAMA4 LG1-3 modules displayed on 293 cells (human) (UniProt Q16363); assay: flow cytometry on 293 cells displaying LAMA4 G-domain variants
[3] = target: human LAMA4 G domain (LG1-5) displayed on 293 cells (human) (UniProt Q16363); assay: flow cytometry on 293 cells displaying LAMA4 G-domain variants; % binding
[4] = target: LGde1, human LAMA4 G domain with LG1 deleted, displayed on 293 cells (human) (UniProt Q16363); assay: as above
[5] = target: human LAMA4 LG1-3 modules displayed on 293 cells (human) (UniProt Q16363); assay: as above
[6] = target: human LAMA4 G domain (LG1-5) displayed on 293 cells (human) (UniProt Q16363); assay: flow cytometry competition on LAMA4-displaying 293 cells; 650-labeled antibody with unlabeled blocking antibody; MFI
[7] = target: mouse His-laminin-α4 (mouse) (UniProt P97927); assay: ELISA hMCAM-Fc capture blocking assay; antibody pre-incubated with mouse LAMA4-His; blocked partner: captured hMCAM-Fc
[8] = target: recombinant laminin 411 (human) (UniProt P07942+P11047); assay: hMCAM.CHO flow cytometric blocking assay; antibody pre-incubated with laminin 411; blocked partner: human MCAM on CHO cells
[9] = target: human LAMA4 G domain (LG1-5) displayed on 293 cells (human) (UniProt Q16363); assay: LAMA4 pDisplay flow cytometric blocking assay on LAMA4-displaying 293 cells; blocked ligand: 650-conjugated mouse MCAM-Fc
[10] = target: human His-laminin-α4 (human) (UniProt Q16363); assay: ForteBio and Biacore

Measured: binding

B1: mouse monoclonal antibody 1C1 (antibody, V domains shown)
VH: QVQLQQSGAELARPGASVKLSCKASGYTFTNYGISWVKQRTGQGLEWIGAIYPRSGNTYYNEKFKGKATLTADKSSSTAYMELRSLTSEDSAVYFCARERDYGSSYALDYWGQGTSVTVSS
VL: DIVMTQSQKFMSTSVGDRVSVTCKASHNVGTNVAWYQQKPGQSPKPLIYSASYRYSGVPDRFTGSGSGTDFTLTISNVQSEDLADYFCQQFNNYPYTFGGGTKLEIKR
not listed: [10]
binds: all other assays above

B2: mouse monoclonal antibody 19C12 (antibody, V domains shown)
VH: QVQLQQSGAELVKPGASVKISCKASGYAFSTYWMNWVKQRPGEGLEWIGQIYPGDGDTNYNGKFKGKATLTADKSSSTAYMQLSSLTSEDSAVYFCARSDGYYDYWGQGTTLTVSS
VL: NIVLTQSPASLAVSLGQRATISCRASESVDSYGTSFMHWYQQKPGQPPKLLICLASSLESGVPARFSGSGSRTDFTLTIDPVEADDAATYYCQQNNEDPPTFGAGTKLELKR
binds: [10] | [7]
